# Results taken from PubChem BioAssay (EPA / NIEHS).
# The shares of active, inactive and inconclusive entries below differ from those in the screen. A potency beside an inconclusive call is a rough fit, not a confirmed value. Calls of active or inactive are those of the source. Rule for the calls: active = hit-call score of the fitted dose curve at least 0.9, where 1 is the maximum; inconclusive = response in the unintended direction; inactive = score below 0.9.
# Assay: Tanguay_ZF_120hpf_OTIC_legacy: (Legacy) Oregon State University Tanguay Lab 120 Hour Post-fertilization zebrafish Assay for Otic Vesicle Malformation (AID 2283639)
# Procedure: Tanguay_ZF_120hpf_legacy is a whole embryo, multiplexed endpoint assay using zebrafish larvae exposed for 120 hours post fertilization on a 96-well plate.Tanguay_ZF_120hpf_OTIC_legacy is one of one assay component(s) measured or calculated from the Tanguay_ZF_120hpf_legacy assay. It is designed to make measurements of zebrafish development as detected with brightfield microscopy of developing zebrafish embryos.Data from the assay component Tanguay_ZF_120hpf_OTIC_legacy was analyzed into 1 assay endpoints. This assay endpoint, Tanguay_ZF_120hpf_OTIC_legacy, was analyzed in the positive analysis fitting direction relative to DMSO as the negative control and baseline of activity. Using a type of morphology reporter, gain-of-signal activity can be used to understand changes in developmentals as they relate to the whole embryo. To generalize the intended target to other relatable targets, this assay endpoint is annotated to the zebrafish development intended target family, where the subfamily is otic vesicle morphogenesis.
# Zebrafish husbandry: Tropical 5D wild-type adult zebrafish were housed in at an approximate density of 1000 per 100 gallon tank at the Sinnhuber Aquatic Research Laboratory, Oregon State University, Corvallis, OR. Each tank was kept at standard laboratory conditions of 28C on a 14-h light/10-h dark photoperiod in fish water consisting of reverse osmosis water supplemented with a commercially available salt (Instant Ocean). Spawning funnels were placed into the tanks the night prior, and embryos were collected and staged. […] Ten microliters of each row of dilution plate 2 was added to 2 exposure plates. The final DMSO concentration used was 0.64% (vol/vol). Thirty-two embryos were also exposed to 5uM trimethyltin chloride (positive control). Plates were sealed to prevent evaporation and foil covered to reduce light exposure and kept in a 28C incubator. Embryos were statically exposed until 120 hpf. At 24 hpf, embryos were assessed for photomotor response using a custom photomotor response analysis tool (PRAT) and for developmental toxicity endpoints (MO24: mortality at 24 hpf, DP: developmental progression, SM: spontaneous movement, and NC: notochord distortion). At 120 hpf, locomotor activity was measured using Viewpoint Zebralab and assessed for 18 endpoints. Zebrafish acquisition and analysis program (ZAAP), a custom program designed to inventory, acquire, and manage zebrafish data, was used to collect developmental endpoints as either present or absent (i.e., binary responses were recorded). If mortality occurred for an embryo (at either 24 or 120 hpf), the non-mortality endpoints were not measured.
Compound,outcome,AC50
N#CN,inactive,–
CCOc1cc(C(C)(C)C)ccc1C1COC(c2c(F)cccc2F)=N1 (stereo not given),–,inconclusive: 0.00983 µM
N#Cc1c[nH]cc1-c1cccc2c1OC(F)(F)O2,–,inconclusive: 18.9 µM
C=C(C)[C@H]1Cc2c(ccc3c2O[C@@H]2COc4cc(OC)c(OC)cc4[C@@H]2C3=O)O1,inactive,–
CCOc1ccc(C(C)(C)COCc2cccc(Oc3ccccc3)c2)cc1,–,inconclusive: 34 µM
Cc1cccc(C)c1N,–,inconclusive: 28 µM
O=C(N[C@H](c1ccccc1)[C@@H]1CN2CCC1CC2)c1c(Cl)ccc(C(F)(F)F)c1Cl,inactive,–
CCCN(CCC)c1c([N+](=O)[O-])cc(C(C)C)cc1[N+](=O)[O-],–,inconclusive: 29.4 µM
CCOP(=S)(OCC)Oc1nc(Cl)n(C(C)C)n1,–,inconclusive: 150 µM
CC(C1CC1)C(O)(Cn1cncn1)c1ccc(Cl)cc1 (stereo not given),–,inconclusive: 201 µM
ClCCOCCCl,–,inconclusive: 5.52 µM
CN(C)C(=S)S,–,inconclusive: 0.000639 µM
CCOP(=S)(OCC)Oc1ccc2c(C)c(Cl)c(=O)oc2c1,–,inconclusive: 202 µM
ClC1C(Cl)C(Cl)C(Cl)C(Cl)C1Cl (stereo not given),–,inconclusive: 13 µM
COCc1cnc(C2=NC(C)(C(C)C)C(=O)N2)c(C(=O)O)c1 (stereo not given),–,inconclusive: 3.88 µM
CN(C)[C@@H]1C(=O)C(C(N)=O)=C(O)[C@@]2(O)C(=O)C3=C(O)c4c(O)cccc4[C@@](C)(O)[C@H]3C[C@@H]12,–,inconclusive: 38.9 µM
C=CCc1ccc2c(c1)OCO2,–,inconclusive: 58.4 µM
CCOP(=O)(NC(C)C)Oc1ccc(SC)c(C)c1 (stereo not given),inactive,–
C=CCC1=C(C)[C@@H](OC(=O)[C@@H]2[C@@H](C=C(C)C)C2(C)C)CC1=O,–,inconclusive: 30.5 µM
CCOP(=S)(OCC)OC(Cl)C(Cl)(Cl)Cl (stereo not given),inactive,–

Compound,outcome,AC50
Cc1ccc(N=CN(C)C=Nc2ccc(C)cc2C)c(C)c1,inactive,–
CCNC(=O)NC(=O)C(C#N)=NOC,inactive,–
COc1ccccc1N,–,inconclusive: 28.4 µM
O=C(O)C(F)(F)C(F)(F)C(F)(F)C(F)(F)C(F)(F)C(F)(F)C(F)(F)C(F)(F)F,inactive,–
CCCCOC(=O)c1ccccc1C(=O)OCc1ccccc1,inactive,–
Clc1ccc(C(Cl)(Cl)Cl)cc1,–,inconclusive: 174 µM
Nc1cc2c3c(c1)C(c1ccccc1)=N[C@@H](NC(=O)c1cccnc1)C(=O)N3CC2,–,inconclusive: 20.5 µM
FC(F)C(F)(F)OCC(Cn1cncn1)c1ccc(Cl)cc1Cl (stereo not given),–,active: 47 µM
CCNc1nc(Cl)nc(NC(C)(C)C#N)n1,–,inconclusive: 110 µM
COP(=O)(OC)C(O)C(Cl)(Cl)Cl (stereo not given),inactive,–
O=C(O)C(F)(F)C(F)(F)C(F)(F)C(F)(F)C(F)(F)C(F)(F)C(F)(F)F,–,inconclusive: 0.00064 µM
CCCCCCOC(=O)c1ccccc1C(=O)OCCCCCC,–,inconclusive: 93.9 µM
C[Si](Cn1cncn1)(c1ccc(F)cc1)c1ccc(F)cc1,–,active: 12.7 µM
CCCCN(CCCC)N=O,–,inconclusive: 145 µM
CCOC(=O)c1ccccc1C(=O)OCC,–,inconclusive: 5.7 µM
CN(C)c1ccc(C(=O)c2ccc(N(C)C)cc2)cc1,–,active: 12.9 µM
Nc1ccc(Cl)cc1N,inactive,–
CCC(C)Nc1c([N+](=O)[O-])cc(C(C)(C)C)cc1[N+](=O)[O-] (stereo not given),inactive,–
O=Cc1ccco1,–,inconclusive: 32.2 µM
CC(=NC#N)N(C)Cc1ccc(Cl)nc1,inactive,–

# Another view of 8 compounds above.
Compound | outcome | AC50
CCNC(=O)NC(=O)C(C#N)=NOC | inactive | –
COc1ccccc1N | – | inconclusive: 28.4 µM
O=C(O)C(F)(F)C(F)(F)C(F)(F)C(F)(F)C(F)(F)C(F)(F)C(F)(F)C(F)(F)F | inactive | –
CCCCOC(=O)c1ccccc1C(=O)OCc1ccccc1 | inactive | –
Clc1ccc(C(Cl)(Cl)Cl)cc1 | – | inconclusive: 174 µM
Nc1cc2c3c(c1)C(c1ccccc1)=N[C@@H](NC(=O)c1cccnc1)C(=O)N3CC2 | – | inconclusive: 20.5 µM
FC(F)C(F)(F)OCC(Cn1cncn1)c1ccc(Cl)cc1Cl (stereo not given) | – | active: 47 µM
CCNc1nc(Cl)nc(NC(C)(C)C#N)n1 | – | inconclusive: 110 µM
